The whole screen tested about 2,000 compounds, of which about 45 (2%) were called active.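 The calls were made as follows: active = inhibition above the screen-wide mean inhibition plus 3 SD (cut at about 44% in these data); inactive = the rest.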 This is one part of the list.
These molecules were tested against Perilipin-1 (Homo sapiens) + 1-acylglycerol-3-phosphate O-acyltransferase ABHD5 (Homo sapiens) (UniProt O60240+Q8WTS1) (assay: blockers of ABHD5 binding to perilipin-1 – cell lysate, split luciferase complementation, luminescence, NIH validation set, pilot screen (AID 493027;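 also: 0% = DMSO wells with the 100% control not disclosed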)). Conditions: split G. princeps luciferase complementation, 4 h; at 7.9 µM, active compounds read high.

By UniProt entry, the sequences of proteins in these tests, tags left out. Where a name states a change or a piece, a line headed by the entry shows the natural chain unless it says otherwise.
UniProt O60240: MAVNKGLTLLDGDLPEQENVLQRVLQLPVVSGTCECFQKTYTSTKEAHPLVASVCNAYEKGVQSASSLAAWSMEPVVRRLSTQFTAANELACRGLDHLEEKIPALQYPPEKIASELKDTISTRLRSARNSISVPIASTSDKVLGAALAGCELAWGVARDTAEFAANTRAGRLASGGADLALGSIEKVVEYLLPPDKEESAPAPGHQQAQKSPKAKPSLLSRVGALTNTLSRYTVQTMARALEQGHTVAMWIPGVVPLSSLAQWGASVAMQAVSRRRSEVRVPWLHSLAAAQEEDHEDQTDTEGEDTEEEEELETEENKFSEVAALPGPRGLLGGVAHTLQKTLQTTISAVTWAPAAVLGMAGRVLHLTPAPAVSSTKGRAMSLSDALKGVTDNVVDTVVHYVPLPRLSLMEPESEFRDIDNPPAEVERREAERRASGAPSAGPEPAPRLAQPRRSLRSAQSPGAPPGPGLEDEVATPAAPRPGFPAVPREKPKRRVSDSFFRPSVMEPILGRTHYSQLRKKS
UniProt Q8WTS1: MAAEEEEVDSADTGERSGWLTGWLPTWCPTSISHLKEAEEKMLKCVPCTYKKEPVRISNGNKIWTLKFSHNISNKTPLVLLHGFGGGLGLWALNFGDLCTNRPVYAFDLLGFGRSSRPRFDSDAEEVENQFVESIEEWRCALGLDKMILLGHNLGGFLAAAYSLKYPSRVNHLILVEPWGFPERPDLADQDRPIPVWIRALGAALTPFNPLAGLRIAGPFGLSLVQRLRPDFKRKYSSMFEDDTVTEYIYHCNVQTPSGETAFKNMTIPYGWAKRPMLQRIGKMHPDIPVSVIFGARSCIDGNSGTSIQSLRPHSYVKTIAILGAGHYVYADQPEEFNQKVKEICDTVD

inhibition, inactive:
CC(C)Cc1ccc(C(C)C(=O)Nc2ccc(O)cc2)cc1 (configuration not stated) 4.08%
CC(=O)NCCCCCCNC(C)=O 3.05%
O=C(CC(C(=O)O)c1c[nH]c2ccccc12)c1ccccc1 (configuration not stated) -2.61%
Cc1oc2cc(O)ccc2c(=O)c1Oc1ccccc1Br 15.1%
Cc1nc(C)c(C)nc1C -2.64%
COc1cc2cc(C(=O)O)[nH]c2c(OC)c1OC -4.8%
CC(=O)N(C(C)=O)c1nc2nc(C)cc(C)n2n1 -0.49%
Nc1nnc(CSCc2ccc(Cl)cc2Cl)s1 -0.56%
O=C(/C=C/c1ccc2c(c1)OCCCO2)c1ccc2ccccc2c1O 17.8%
C=CCOC(=O)C1=C(C)NC(=O)NC1/C=C/c1ccccc1OC (configuration not stated) -5.03%
CC(=O)/C=C/c1ccc(C)o1 18.2%
CC(=O)O[C@]1(C(C)=O)CC[C@H]2[C@@H]3C=C(C)C4=CC(=O)CC[C@]4(C)[C@H]3CC[C@@]21C 0.09%
COc1ccc2c(c1)c(=O)oc1cc3occ(C(C)(C)C)c3cc12 -8.22%
COc1ccccc1CCn1cnc2c3cc(C)ccc3n(C)c2c1=O 11.8%
C(=C/c1nccc2c1[nH]c1ccccc12)/c1ccc2c(c1)OCO2 4.08%
OCC1CCN(Cc2cn(Cc3ccccc3)nc2-c2cc3ccccc3o2)CC1 2.57%
CC1(C)Cc2ccccc2-c2n[nH]c(=S)n21 -17.3%
CC1CCCC(C)N1NC(=O)c1ccc(Cl)c(S(N)(=O)=O)c1 (configuration not stated) -6.82%
Nc1nnc(-c2cccc(Cl)c2Cl)c(N)n1 -7.35%
CN(C)[C@@H]1C(=O)C(C(=O)NCN2CCCC2)=C(O)[C@@]2(O)C(=O)C3=C(O)c4c(O)cccc4[C@@](C)(O)C3CC12 (some centres not stated) 4.91%
O=c1c(-c2ccccc2)c(O)c2cccc3c2n1CCC3 0.02%
COc1ccc(C2=NOC(COc3ccc4c(C)cc(=O)oc4c3)C2)c(OC)c1 (configuration not stated) 29.8%
COc1ccc(C2C3CCCCC3(O)CCN2C(=O)c2cccs2)cc1 (configuration not stated) -2.09%
CCCC(=O)Nc1ccc(OCC(O)CNC(C)C)c(C(C)=O)c1 (configuration not stated) -4.88%
CCn1c(C)cc2c(c1=O)C(c1ccccc1)C(C(=O)OC)=C(N)O2 (configuration not stated) -2.29%
NC(=O)c1c(-c2ccccc2)oc2ccc(O)cc12 -4.07%
CC(=O)OCC(=O)[C@@]12OC3(CCCC3)O[C@@H]1C[C@H]1[C@@H]3CCC4=CC(=O)C=C[C@]4(C)[C@@]3(F)[C@@H](O)C[C@@]12C 12.8%
CS(=O)(=O)c1cccc(C(=O)Oc2ccccc2)c1 1.21%
Cc1cnc(N)c2c(=O)oc3ccccc3c12 -4.88%
CCC(=O)Oc1ccc(C(=O)Nc2ccc([N+](=O)[O-])cc2)cc1 7.03%
COCCN(CCOC)Cc1c(C)[nH]c2c(C)c(C)ccc2c1=O 6.03%
Cc1[nH]c2ccccc2c1C(=O)C(=O)NCc1ccco1 -8.34%
Cc1ccc(S(=O)(=O)NC(C(=O)Oc2cc3oc(=O)cc(C)c3cc2Cl)C(C)C)cc1 (configuration not stated) 27.4%
CCOc1ccc2nc(N/C(N)=N/S(C)(=O)=O)nc(C)c2c1 0.73%
CCOc1ccc(C(NC(C)=O)c2ccc(OC)c(OC)c2)cc1 (configuration not stated) -10.9%
CC1/C(=C\c2ccc(Cl)cc2)C(=O)C2CC1C2(C)C (configuration not stated) -9.57%
CN(C)CCOc1ccccc1Cc1ccccc1 30.3%
COc1ccccc1/C=C/C(=O)OCCN1CCOCC1 -9.02%
COc1ccc(S(=O)(=O)NC(Cc2cnc[nH]2)C(=O)O)cc1 (configuration not stated) 2.12%
C#CCN1C(=O)C(O)(CC(=O)c2ccc(OC)c(OC)c2)c2ccccc21 (configuration not stated) 0.58%
CCCCC1C(=O)N(c2ccccc2)N(c2ccccc2)C1=O 2.97%
Cc1cn([C@H]2C[C@H](N=[N+]=[N-])[C@@H](CO)O2)c(=O)[nH]c1=O -1.15%
O=C(CS(=O)(=O)c1ccccc1)c1ccc2c(c1)OCCO2 -12.8%
COc1ccc([C@@H]2Sc3ccccc3N(CCN(C)C)C(=O)[C@@H]2OC(C)=O)cc1 -10.8%
CN(C)CCN(Cc1ccc(Cl)cc1)c1ccccn1 -4.65%
O=C(c1cccc2ccccc12)C1CCCN(C(=O)CCN2CCCO2)C1 (configuration not stated) -7.39%
Cc1onc(-c2c(Cl)cccc2Cl)c1C(=O)NC1C(=O)N2C1SC(C)(C)C2C(=O)O (configuration not stated) -6.51%
CN(CCCN1CCOCC1)Cc1cn(C)nc1-c1ccccc1F -4.68%
Cc1cccc2c1CC(C)(C)N/C2=C\C(N)=O 0.8%
CC(C[N+](C)(C)C)OC(N)=O (configuration not stated) -3.45%
CCOC(=O)C1NN=C(C(=O)c2ccccc2)C1c1ccc(Cl)cc1 (configuration not stated) 7.72%
COC(=O)c1cc(Br)c(=O)n(CCc2ccc(O)cc2)c1 4.19%
Cc1ccc2c(c1)C(CCN)C(=O)N2Cc1ccccc1 (configuration not stated) -10.9%
CC(C)c1ccc2[nH]c3c(c2c1)CCCC3=O 3.94%
COc1cc(C(=O)NCCc2c[nH]c3ccccc23)ccc1OCc1c(C)noc1C 17.5%
CN(C)CCCNc1ncnc2c1cnn2-c1ccccc1 -8.63%
COc1cc(NC(=O)COc2ccccc2)c(OC)cc1NC(C)=O -10.3%
CN1/C(=C\C=Nc2ccccc2)C(C)(C)c2ccccc21 4.41%
O=C(O)CCCNc1ccc(S(=O)(=O)Nc2ccccc2C(=O)O)cc1C(=O)O -7.27%
Cc1ccc2c(ccc(=S)n2C)c1 -8.38%
CC1(C)[C@@H](O)CC[C@]2(C)[C@H]3C(=O)C=C4[C@@H]5C[C@@](C)(C(=O)O)CC[C@]5(C)CC[C@@]4(C)[C@]3(C)CC[C@@H]12 4.92%
COCCOC(=O)C1=C(C)NC(C)=C(C(=O)OC(C)C)C1c1cccc([N+](=O)[O-])c1 (configuration not stated) 6.11%
CN1C(C(=O)Nc2ccccn2)=C(O)c2ccccc2S1(=O)=O -0.86%
COc1ccc2c(c1)C(=O)CC(c1ccccc1F)O2 (configuration not stated) 1.66%
CC1(C)CC(c2csc(N)n2)CCO1 (configuration not stated) -9.1%
C=C(C)COc1ccc(-c2n[nH]c(C)c2-c2ccc(OC)cc2)c(O)c1 -1.72%
O=C(CCCN1CCC(O)(c2ccc(Cl)cc2)CC1)c1ccc(F)cc1 -4.64%
O=C(NC(=S)Nc1nc(-c2ccccc2)cs1)c1ccco1 5.5%
Cc1ccc(C)c(OCCCC(C)(C)C(=O)O)c1 -12.4%
c1ccc(SSc2ccccc2)cc1 -5.29%
COc1ccc2[nH]c(C)c(CN3CCC(C)CC3)c(=O)c2c1 -4.96%
Cc1ccccc1C(=O)NCC(=O)O 0.22%
CC(=O)CC(c1ccc([N+](=O)[O-])cc1)c1c(O)c2ccccc2oc1=O (configuration not stated) -0.92%
CCCCCCCCNC(C)C(O)c1ccc(SC(C)C)cc1 (configuration not stated) -26.2%
COc1cc2c(cc1OC)C1(CCCCC1)CN(C)C2 -0.02%
O=c1[nH]c(=O)n([C@H]2C[C@H](O)[C@@H](CO)O2)cc1C(F)(F)F -13.5%
CC(C)C(=O)Nc1ccc2c3c(cccc13)CC2 -2.98%
Cc1nnc(SCC2=C(C(=O)O)N3C(=O)[C@@H](NC(=O)Cn4cnnn4)[C@H]3SC2)s1 -11.7%
O=CNC1CCCc2c1[nH]c1ccc(Cl)cc21 (configuration not stated) -6.27%
CCCC(=O)O[C@]1(C(=O)CO)CC[C@H]2[C@@H]3CCC4=CC(=O)CC[C@]4(C)[C@H]3[C@@H](O)C[C@@]21C 5.44%
O=c1cc(CN2CCN(c3cccc(Cl)c3)CC2)c2cc(O)c(-c3ccccc3)cc2o1 1.13%
COc1ccc2oc(=O)c(-c3nc(C)cs3)cc2c1 -14.4%
Cc1ccccc1OCCSc1nc2ncnc(N)c2[nH]1 -5.5%
COc1ccc2nc(S(=O)Cc3ncc(C)c(OC)c3C)[nH]c2c1 (configuration not stated) 2.38%
Clc1ccc2c(c1)[C@H]1OCC[C@H]1[C@@H](c1ccco1)N2 12.8%
COc1ccc2cc(C3(C)NC(=O)NC3=O)ccc2c1 (configuration not stated) -12%
CC12CCC(C(=O)Nc3ccccc3Br)(C/C1=N\O)C2(C)C (configuration not stated) -9.17%
CC12CCC(C(=O)N3CCc4ccccc43)(CC1=O)C2(C)C (configuration not stated) -4.62%
CCOC(=O)c1ccc(NC(=S)NCCc2ccccc2F)cc1 -11.7%
NC(=O)N1c2ccccc2CC(=O)c2ccccc21 -5.17%
CC(C)c1ccc(OCc2ccc(C(=O)O)o2)cc1 -1.73%
O=C(c1ccco1)N1CCCN(Cc2nc(-c3ccc4c(c3)OCO4)no2)CC1 7.12%
CCOC(=O)c1ccc(N2C(=O)C(CC(=O)NC)N(CCc3ccc(OC)c(OC)c3)C2=S)cc1 (configuration not stated) -0.54%

Quoted at random: 4 compounds from above.
inhibition, inactive:
CCOc1ccc(C(NC(C)=O)c2ccc(OC)c(OC)c2)cc1 (configuration not stated) -10.9%
CCCCCCCCNC(C)C(O)c1ccc(SC(C)C)cc1 (configuration not stated) -26.2%
O=c1cc(CN2CCN(c3cccc(Cl)c3)CC2)c2cc(O)c(-c3ccccc3)cc2o1 1.13%
COc1cc(NC(=O)COc2ccccc2)c(OC)cc1NC(C)=O -10.3%

Following part.

inhibition, active:
CC1(c2ccccc2)CC(C)(C)N2C(=O)C(=O)c3cccc1c32 (configuration not stated) 65.7%
CC1=CC(=O)c2ccccc2C1=O 44.4%
COC(=O)[C@@H](N)CS 65.9%
COc1ccc(C2=CC(=O)C=CC2=O)cc1 73.7%

Source: PubChem BioAssay AID493027 (The Scripps Research Institute Molecular Screening Center, 2011)
